According to patent KR20230083068A:
Results are given in words; binding and its absence hold for the method and conditions named. Some binding calls cover weakened binding; strength is not graded here.

By UniProt entry, the sequences of proteins in these tests, tags left out.
UniProt P33469: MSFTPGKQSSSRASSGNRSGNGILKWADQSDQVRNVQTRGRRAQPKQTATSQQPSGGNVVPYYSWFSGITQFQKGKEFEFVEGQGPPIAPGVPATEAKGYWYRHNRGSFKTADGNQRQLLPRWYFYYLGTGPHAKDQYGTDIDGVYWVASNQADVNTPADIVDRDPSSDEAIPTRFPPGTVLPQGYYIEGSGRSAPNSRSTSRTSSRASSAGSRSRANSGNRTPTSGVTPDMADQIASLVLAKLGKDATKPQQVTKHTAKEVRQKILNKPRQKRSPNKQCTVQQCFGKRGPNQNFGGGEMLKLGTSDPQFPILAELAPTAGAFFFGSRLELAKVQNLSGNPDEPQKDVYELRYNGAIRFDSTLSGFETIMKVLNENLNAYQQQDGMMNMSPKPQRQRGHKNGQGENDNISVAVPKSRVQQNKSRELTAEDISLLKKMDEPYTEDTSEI

What was measured:
[1] = biological target: HCoV-OC43 N 단백질 (바이러스 입자 또는 감염된 Vero 세포 용해물의 천연 N 단백질) (HCoV-OC43) (UniProt P33469); test: sandwich ELISA, mAb coated on plate, lysed virus particles
[2] = biological target: HCoV-OC43 N 단백질 (바이러스 입자 또는 감염된 Vero 세포 용해물의 천연 N 단백질) (HCoV-OC43) (UniProt P33469); test: western blot of infected Vero cell lysates
[3] = biological target: HCoV-OC43 N 단백질 (바이러스 입자 또는 감염된 Vero 세포 용해물의 천연 N 단백질) (HCoV-OC43) (UniProt P33469); test: western blot of pulled-down complexes and of virus lysate

Measured: binding

B1: 항-HCoV-OC43 N 단백질 특이적 단클론 항체 (클론 1C7D7 mAb) (antibody, V domains shown)
VH: EVKLEQSGGGLVKPGGSLKLSCAASGFSFSSHTMSWVRQTPEKRLEWVATITSGGTYTYYPDSVKGRFTISRDNAKNTLYLQMTSLKSEDTAMYYCTRGQEADGYYVPFAYWGQGTLVTVSA
VL: DIVMTQSPSSLAVSVGEKVTMSCKSSQSLLYSSNQKNYLAWYQQKPGQSPKLLIFWASTRESGVPDRFTGSGSGTDFTLTISSVQAEDLAVYYCKQSYNLRTFGGGTKLEIKR
binds: all assays above
